Data as given in the supplement of paper PMC10849652.
Some of the results follow.

Chains of the proteins cited; added tags and fusions are not shown. Lines headed by an entry give the natural chain unless they say otherwise; changes in a name come on top.
UniProt P25098: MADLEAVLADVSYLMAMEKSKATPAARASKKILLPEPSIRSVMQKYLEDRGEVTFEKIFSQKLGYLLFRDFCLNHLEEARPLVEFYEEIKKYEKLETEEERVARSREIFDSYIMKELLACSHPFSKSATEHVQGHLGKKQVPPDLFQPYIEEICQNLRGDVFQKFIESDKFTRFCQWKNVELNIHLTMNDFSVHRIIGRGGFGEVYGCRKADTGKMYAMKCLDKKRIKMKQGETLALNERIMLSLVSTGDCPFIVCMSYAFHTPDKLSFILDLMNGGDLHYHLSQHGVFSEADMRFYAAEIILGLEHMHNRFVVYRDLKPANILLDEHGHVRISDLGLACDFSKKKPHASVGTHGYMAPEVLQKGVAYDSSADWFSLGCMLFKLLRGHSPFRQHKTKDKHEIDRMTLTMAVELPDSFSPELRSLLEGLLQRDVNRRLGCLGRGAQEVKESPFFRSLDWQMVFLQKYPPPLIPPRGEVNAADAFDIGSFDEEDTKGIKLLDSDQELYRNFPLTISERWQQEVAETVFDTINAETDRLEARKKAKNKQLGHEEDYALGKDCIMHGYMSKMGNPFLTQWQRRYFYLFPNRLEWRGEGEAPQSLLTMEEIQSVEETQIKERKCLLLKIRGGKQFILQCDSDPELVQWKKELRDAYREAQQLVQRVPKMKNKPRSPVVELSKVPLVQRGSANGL
UniProt Q92990: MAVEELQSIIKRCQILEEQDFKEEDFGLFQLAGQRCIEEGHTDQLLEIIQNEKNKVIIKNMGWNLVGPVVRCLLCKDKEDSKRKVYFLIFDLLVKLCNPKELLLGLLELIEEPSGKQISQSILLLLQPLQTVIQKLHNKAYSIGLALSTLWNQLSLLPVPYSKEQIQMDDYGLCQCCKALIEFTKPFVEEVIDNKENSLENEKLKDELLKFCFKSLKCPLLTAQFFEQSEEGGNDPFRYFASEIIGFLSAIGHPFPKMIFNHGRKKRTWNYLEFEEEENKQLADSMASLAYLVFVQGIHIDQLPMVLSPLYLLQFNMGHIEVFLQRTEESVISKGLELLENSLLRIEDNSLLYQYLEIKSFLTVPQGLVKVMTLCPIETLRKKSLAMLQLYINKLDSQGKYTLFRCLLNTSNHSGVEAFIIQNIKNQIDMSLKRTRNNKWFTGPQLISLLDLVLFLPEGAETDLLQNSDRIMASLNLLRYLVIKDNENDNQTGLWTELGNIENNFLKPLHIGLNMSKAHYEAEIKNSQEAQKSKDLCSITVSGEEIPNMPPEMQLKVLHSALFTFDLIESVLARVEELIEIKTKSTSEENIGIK
UniProt Q9HAV7: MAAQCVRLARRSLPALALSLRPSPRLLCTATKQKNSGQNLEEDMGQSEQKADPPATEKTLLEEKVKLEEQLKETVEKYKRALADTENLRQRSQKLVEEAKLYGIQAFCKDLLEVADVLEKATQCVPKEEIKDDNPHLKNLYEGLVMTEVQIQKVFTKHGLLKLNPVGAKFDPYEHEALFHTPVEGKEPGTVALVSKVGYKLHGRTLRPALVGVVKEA
UniProt Q4V328: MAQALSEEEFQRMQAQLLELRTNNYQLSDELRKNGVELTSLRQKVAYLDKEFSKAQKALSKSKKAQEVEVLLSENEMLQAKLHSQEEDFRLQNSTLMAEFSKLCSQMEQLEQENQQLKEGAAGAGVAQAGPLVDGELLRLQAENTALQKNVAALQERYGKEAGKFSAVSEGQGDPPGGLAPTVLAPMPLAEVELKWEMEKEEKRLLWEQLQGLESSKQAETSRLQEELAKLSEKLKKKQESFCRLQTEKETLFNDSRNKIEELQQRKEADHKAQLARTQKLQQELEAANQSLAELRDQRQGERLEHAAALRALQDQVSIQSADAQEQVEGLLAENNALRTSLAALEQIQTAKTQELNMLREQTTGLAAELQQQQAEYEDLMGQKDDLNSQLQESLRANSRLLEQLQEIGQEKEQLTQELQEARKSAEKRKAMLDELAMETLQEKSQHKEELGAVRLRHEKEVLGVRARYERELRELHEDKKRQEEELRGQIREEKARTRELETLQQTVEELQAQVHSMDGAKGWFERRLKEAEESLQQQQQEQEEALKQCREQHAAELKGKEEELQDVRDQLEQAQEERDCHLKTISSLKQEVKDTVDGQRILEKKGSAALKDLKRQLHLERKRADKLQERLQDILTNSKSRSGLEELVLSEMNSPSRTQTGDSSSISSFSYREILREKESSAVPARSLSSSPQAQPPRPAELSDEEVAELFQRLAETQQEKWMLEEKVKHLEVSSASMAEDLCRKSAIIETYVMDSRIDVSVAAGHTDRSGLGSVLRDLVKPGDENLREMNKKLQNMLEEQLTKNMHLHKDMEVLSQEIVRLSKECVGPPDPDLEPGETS
UniProt Q04760: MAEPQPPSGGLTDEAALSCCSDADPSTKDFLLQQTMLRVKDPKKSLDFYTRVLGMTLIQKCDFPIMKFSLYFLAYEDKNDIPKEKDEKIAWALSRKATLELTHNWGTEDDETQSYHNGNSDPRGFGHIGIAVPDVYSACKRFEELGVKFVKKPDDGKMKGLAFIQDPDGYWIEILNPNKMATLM
UniProt Q9HC44: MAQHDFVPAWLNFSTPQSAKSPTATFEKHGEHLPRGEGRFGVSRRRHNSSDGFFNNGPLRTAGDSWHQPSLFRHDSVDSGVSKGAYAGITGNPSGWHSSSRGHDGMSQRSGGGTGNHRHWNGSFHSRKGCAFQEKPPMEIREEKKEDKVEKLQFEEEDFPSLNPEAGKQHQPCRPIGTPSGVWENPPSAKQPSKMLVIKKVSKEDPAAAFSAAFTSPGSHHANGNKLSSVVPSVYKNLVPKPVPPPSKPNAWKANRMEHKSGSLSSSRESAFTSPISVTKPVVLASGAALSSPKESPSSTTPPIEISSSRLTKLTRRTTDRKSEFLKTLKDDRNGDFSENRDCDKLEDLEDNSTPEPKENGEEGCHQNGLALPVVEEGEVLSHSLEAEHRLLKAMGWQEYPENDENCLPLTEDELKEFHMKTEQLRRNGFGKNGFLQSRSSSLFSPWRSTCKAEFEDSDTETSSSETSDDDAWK
UniProt Q7Z2K8: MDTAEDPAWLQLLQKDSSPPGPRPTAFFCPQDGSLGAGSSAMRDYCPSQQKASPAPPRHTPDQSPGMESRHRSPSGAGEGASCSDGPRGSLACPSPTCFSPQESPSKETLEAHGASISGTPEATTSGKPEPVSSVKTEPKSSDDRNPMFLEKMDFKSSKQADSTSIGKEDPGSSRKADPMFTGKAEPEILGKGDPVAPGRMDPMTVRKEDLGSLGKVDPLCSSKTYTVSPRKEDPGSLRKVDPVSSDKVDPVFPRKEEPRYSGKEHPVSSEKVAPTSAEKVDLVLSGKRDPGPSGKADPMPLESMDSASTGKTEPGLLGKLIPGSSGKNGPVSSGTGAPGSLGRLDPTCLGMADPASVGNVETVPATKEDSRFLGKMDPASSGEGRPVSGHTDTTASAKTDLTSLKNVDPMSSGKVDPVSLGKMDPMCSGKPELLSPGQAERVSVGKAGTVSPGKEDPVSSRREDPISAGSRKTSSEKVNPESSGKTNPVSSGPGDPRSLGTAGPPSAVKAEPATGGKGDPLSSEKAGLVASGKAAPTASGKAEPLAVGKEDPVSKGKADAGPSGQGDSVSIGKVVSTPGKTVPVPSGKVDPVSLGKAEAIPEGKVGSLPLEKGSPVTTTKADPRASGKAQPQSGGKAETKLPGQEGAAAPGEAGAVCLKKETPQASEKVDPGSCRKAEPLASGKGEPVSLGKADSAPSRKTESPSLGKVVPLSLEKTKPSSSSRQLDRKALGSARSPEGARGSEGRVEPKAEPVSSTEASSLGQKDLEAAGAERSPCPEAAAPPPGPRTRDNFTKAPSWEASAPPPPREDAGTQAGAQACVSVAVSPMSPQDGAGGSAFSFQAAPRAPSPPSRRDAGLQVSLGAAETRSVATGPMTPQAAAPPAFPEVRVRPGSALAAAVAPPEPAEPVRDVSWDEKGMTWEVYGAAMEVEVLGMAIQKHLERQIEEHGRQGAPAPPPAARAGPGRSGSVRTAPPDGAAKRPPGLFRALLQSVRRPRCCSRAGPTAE
UniProt Q9Y3E0: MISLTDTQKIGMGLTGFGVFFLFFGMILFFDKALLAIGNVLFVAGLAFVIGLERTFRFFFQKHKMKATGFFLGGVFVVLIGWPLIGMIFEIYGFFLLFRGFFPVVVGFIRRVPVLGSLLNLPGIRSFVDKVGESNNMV
UniProt Q14344, whole entry, looked up: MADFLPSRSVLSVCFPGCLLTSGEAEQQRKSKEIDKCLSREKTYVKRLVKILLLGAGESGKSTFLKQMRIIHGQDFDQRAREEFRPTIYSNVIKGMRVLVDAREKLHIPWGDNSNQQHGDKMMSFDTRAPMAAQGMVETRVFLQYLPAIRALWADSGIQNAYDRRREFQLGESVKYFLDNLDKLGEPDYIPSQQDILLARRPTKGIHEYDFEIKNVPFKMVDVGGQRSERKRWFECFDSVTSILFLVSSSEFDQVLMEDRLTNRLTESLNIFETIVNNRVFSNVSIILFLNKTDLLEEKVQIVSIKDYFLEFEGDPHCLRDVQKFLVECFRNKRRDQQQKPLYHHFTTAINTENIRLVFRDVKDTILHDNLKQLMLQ
UniProt Q08378: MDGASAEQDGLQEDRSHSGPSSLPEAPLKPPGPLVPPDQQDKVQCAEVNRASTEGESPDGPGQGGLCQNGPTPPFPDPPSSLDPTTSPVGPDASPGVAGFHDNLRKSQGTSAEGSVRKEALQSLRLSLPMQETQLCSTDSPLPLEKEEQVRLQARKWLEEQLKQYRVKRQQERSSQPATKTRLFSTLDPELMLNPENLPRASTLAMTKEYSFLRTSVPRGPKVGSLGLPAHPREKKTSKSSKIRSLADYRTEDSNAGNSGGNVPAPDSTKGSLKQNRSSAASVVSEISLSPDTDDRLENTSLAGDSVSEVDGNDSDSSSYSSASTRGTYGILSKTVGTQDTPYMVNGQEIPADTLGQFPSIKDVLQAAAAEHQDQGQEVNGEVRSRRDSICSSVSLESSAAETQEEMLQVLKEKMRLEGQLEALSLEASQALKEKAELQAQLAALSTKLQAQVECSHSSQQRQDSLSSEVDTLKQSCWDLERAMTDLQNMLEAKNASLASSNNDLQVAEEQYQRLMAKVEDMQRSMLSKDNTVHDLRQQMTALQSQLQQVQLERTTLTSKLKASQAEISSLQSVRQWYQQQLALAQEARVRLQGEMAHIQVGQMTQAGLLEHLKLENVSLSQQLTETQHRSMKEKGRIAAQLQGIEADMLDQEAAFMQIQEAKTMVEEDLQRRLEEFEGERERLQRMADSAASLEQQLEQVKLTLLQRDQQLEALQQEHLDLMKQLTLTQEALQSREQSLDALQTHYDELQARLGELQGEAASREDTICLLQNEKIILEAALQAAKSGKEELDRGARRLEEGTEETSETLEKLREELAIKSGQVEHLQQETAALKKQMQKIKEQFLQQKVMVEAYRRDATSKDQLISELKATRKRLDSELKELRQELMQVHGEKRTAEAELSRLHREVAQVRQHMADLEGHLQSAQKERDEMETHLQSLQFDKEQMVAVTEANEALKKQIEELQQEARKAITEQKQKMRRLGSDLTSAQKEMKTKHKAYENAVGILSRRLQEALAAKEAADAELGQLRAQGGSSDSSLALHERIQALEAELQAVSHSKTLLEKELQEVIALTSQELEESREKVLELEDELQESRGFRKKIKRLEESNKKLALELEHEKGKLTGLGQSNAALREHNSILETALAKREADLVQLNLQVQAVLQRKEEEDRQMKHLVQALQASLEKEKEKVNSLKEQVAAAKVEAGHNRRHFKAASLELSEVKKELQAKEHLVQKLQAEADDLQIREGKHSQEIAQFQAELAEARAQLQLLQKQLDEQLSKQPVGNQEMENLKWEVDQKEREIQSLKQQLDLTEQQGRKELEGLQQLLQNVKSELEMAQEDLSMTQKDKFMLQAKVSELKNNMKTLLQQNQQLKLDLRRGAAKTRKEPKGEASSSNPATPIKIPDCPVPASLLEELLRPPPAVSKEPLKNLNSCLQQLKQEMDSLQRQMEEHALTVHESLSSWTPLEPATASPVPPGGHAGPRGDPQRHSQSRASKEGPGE
UniProt O95249: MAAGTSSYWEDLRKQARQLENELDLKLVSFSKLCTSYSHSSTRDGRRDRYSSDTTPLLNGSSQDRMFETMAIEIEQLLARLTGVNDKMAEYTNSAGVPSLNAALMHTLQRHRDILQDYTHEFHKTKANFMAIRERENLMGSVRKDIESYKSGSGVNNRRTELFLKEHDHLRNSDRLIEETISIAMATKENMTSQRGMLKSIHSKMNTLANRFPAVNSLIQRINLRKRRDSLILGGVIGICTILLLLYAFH
UniProt Q9NWU2, whole entry, looked up: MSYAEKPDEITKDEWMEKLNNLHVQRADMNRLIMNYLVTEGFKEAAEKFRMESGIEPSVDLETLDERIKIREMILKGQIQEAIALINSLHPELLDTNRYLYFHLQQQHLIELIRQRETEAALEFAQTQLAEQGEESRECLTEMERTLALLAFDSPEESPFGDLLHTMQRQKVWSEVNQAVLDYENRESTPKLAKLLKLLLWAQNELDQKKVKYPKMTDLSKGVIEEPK

Legend:
Assay in all cases: log2 fold change, soluble protein after heating vs DMSO (PISA); higher = thermal stabilisation; K562 cells, 10 uM, 30 min; active = over 0.2 and 3.5 SD of the protein, either way, in both replicates (recomputed)
[1] = compound: CC1=C(C=C(C=C1)NC(=O)C2=CC(=CC=C2)C(C)(C)C#N)NC3=CC4=C(C=C3)N=CN(C4=O)C
Outline: (§1)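 Soluble protein was quantified by TMTpro 16plex LC-MS/MS after channel sums were equalised. It was obtained as the supernatant after 21,000xg for 90 min from pooled aliquots of K562 cells (2×10^6 cells/mL, 10 μM compound, 30 min) heated for 3 min across 48°C-58°C and extracted in PBS with 0.5% NP-40 at 4°C. Thermal stability values are relative to control samples and come from duplicates. They are given as log2 fold changes.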

[2] = compound: CC1=C(C=C(C=C1)NC(=O)C2=CC(=CC=C2)N(C)C)NC(=O)C3=CC=C(C=C3)O
Outline: as §1

[3] = compound: CC1=CC=C(C=C1)SC2=C3C=C(SC3=CN=C2)C(=O)N
Outline: as §1

[4] = compound: CC1=NC(=CC=C1)C2=C(N=C(N2)C(C)(C)C)C3=CC4=NC=CN=C4C=C3
Outline: as §1

Nexturastat A = compound: CCCCN(Cc1ccc(C(=O)NO)cc1)C(=O)Nc1ccccc1 [Nexturastat A]
Outline: as §1

vemurafenib = compound: CCCS(=O)(=O)Nc1ccc(F)c(C(=O)c2c[nH]c3ncc(-c4ccc(Cl)cc4)cc23)c1F [vemurafenib]
Outline: as §1

[5] = compound: CCCS(=O)(=O)Nc1ccc(F)c(C(=O)c2c[nH]c3ncc(Cl)cc23)c1F
Outline: as §1

[6] = compound: CCCc1cc(C)[nH]c(=O)c1CNC(=O)c1cc(-c2ccnc(N3CCN(C)CC3)c2)cc2c1cnn2C(C)C
Outline: as §1

givinostat = compound: CCN(CC)Cc1ccc2cc(COC(=O)Nc3ccc(C(=O)NO)cc3)ccc2c1 [givinostat]
Outline: as §1

barasertib = compound: CCN(CCCOc1ccc2c(Nc3cc(CC(=O)Nc4cccc(F)c4)[nH]n3)ncnc2c1)CCOP(=O)(O)O [barasertib]
Outline: as §1

[7] = compound: CC[C@@H]1C(=O)N(C)c2cnc(Nc3ccc(C(=O)NC4CCN(C)CC4)cc3OC)nc2N1C1CCCC1
Outline: as §1

volasertib = compound: CC[C@@H]1C(=O)N(C)c2cnc(Nc3ccc(C(=O)N[C@H]4CC[C@H](N5CCN(CC6CC6)CC5)CC4)cc3OC)nc2N1C(C)C [volasertib]
Outline: as §1

[8] = compound: CC[C@H](C)N1C=C(C2=C(C=C(C=C21)C3=CN=C(C=C3)N4CCNCC4)C(=O)NCC5=C(C=C(NC5=O)C)C)C
Outline: as §1

epoxomicin = compound: CC[C@H](C)[C@@H](C(=O)N[C@@H]([C@@H](C)O)C(=O)N[C@@H](CC(C)C)C(=O)[C@]1(CO1)C)NC(=O)[C@H]([C@@H](C)CC)N(C)C(=O)C [epoxomicin]
Outline: as §1

[9] = compound: CCn1c(C(=O)N(C2CC2)C2CC2)cc2c3c(ncn3C)c(Nc3cc(C)n(C)n3)nc21
Outline: as §1

[10] = compound: CCn1cc(-c2ccnc3[nH]c(-c4cccc(CN(C)C)c4)cc23)c(-c2ccc(NC(=O)N(C)C)cc2)n1
Outline: as §1

[11] = compound: CN(C)CC(=O)Nc1ccc2[nH]c(=O)c3ccccc3c2c1
Outline: as §1

rosiglitazone = compound: CN(CCOC1=CC=C(C=C1)C[C@H]2C(=O)NC(=O)S2)C3=CC=CC=N3 (racemic) [rosiglitazone]
Outline: as §1

[12] = compound: CN1C2=C(C3=C1C(=O)N(N=C3)CC4=CC(=CC=C4)N)SC(=C2)S(=O)C
Outline: as §1

[13] = compound: CN1CCC(CNc2ccc3ncc(-c4cccc(OC(F)(F)F)c4)n3n2)CC1
Outline: as §1

Measured: log2 fold change

GRK2 (UniProt P25098)
inactive: [1] -0.052 | [2] 0.002 | [3] 0.009 | [4] 0.007 | Nexturastat A 0.005 | vemurafenib -0.02 | [5] 0.021 | [6] 0.019 | givinostat -0.018 | barasertib 0.036 | [7] -0.025 | volasertib -0.08 | [8] 0.019 | epoxomicin 0.045 | [9] -0.006 | [10] -0.045 | [11] 0.003 | rosiglitazone 0.053 | [12] -0.051 | [13] -0.082

GORASP2 isoform 3 (UniProt Q9H8Y8)
inactive: [1] 0 | [2] -0.095 | [3] 0.074 | [4] -0.044 | Nexturastat A -0.019 | vemurafenib 0.1 | [5] 0.164 | [6] 0.027 | givinostat 0.054 | barasertib 0.042 | [7] 0.043 | volasertib -0.131 | [8] 0.07 | epoxomicin 0.008 | [9] -0.059 | [10] 0 | [11] 0.045 | rosiglitazone 0.069 | [12] 0.017 | [13] 0.133

GLMN (UniProt Q92990)
inactive: [1] -0.01 | [2] 0.013 | [3] 0.017 | [4] -0.009 | Nexturastat A -0.033 | vemurafenib 0.05 | [5] 0.074 | [6] -0.017 | givinostat 0.03 | barasertib 0.005 | [7] -0.054 | volasertib -0.08 | [8] 0.024 | epoxomicin 0.023 | [9] 0.004 | [10] -0.007 | [11] 0.004 | rosiglitazone 0.032 | [12] -0.043 | [13] -0.125

GLG1 isoform 2 (UniProt Q92896)
inactive: [1] -0.027 | [2] 0.008 | [3] 0.102 | [4] 0.031 | Nexturastat A -0.061 | vemurafenib -0.014 | [5] 0.02 | [6] -0.008 | givinostat 0.005 | barasertib 0.015 | [7] 0.014 | volasertib -0.071 | [8] -0.039 | epoxomicin 0.04 | [9] -0.007 | [10] -0.01 | [11] -0.033 | rosiglitazone -0.003 | [12] -0.037 | [13] 0.042

GRPEL1 (UniProt Q9HAV7)
inactive: [1] 0.059 | [2] -0.028 | [3] 0.002 | [4] 0.031 | Nexturastat A -0.091 | vemurafenib 0.032 | [5] 0.003 | [6] 0.081 | givinostat -0.016 | barasertib 0.019 | [7] -0.001 | volasertib -0.025 | [8] 0.027 | epoxomicin 0.005 | [9] 0.014 | [10] -0.016 | [11] 0 | rosiglitazone 0.033 | [12] -0.083 | [13] -0.021

GRIPAP1 (UniProt Q4V328)
inactive: [1] 0.011 | [2] 0.011 | [3] 0.012 | [4] 0.016 | Nexturastat A 0.03 | vemurafenib 0.036 | [5] 0.094 | [6] 0.045 | givinostat -0.005 | barasertib 0.032 | [7] -0.031 | volasertib -0.236 | [8] 0.093 | epoxomicin -0.039 | [9] -0.016 | [10] 0.017 | [11] -0.022 | rosiglitazone 0.018 | [12] 0.044 | [13] 0.044

GLO1 (UniProt Q04760)
inactive: [1] 0.012 | [2] 0.023 | [3] 0.011 | [4] 0.024 | Nexturastat A -0.032 | vemurafenib 0.009 | [5] -0.017 | [6] -0.02 | givinostat -0.019 | barasertib 0.013 | [7] -0.008 | volasertib 0.068 | [8] -0.043 | epoxomicin 0.021 | [9] 0.05 | [10] -0.004 | [11] -0.004 | rosiglitazone -0.044 | [12] -0.051 | [13] 0.011

GPBP1L1 (UniProt Q9HC44)
inactive: [1] -0.001 | [2] 0.01 | [3] -0.004 | [4] 0.034 | Nexturastat A 0.008 | vemurafenib -0.062 | [5] -0.052 | [6] -0.172 | givinostat 0.021 | barasertib 0 | [7] -0.018 | volasertib -0.006 | [8] -0.05 | epoxomicin 0.083 | [9] 0.048 | [10] -0.094 | [11] -0.008 | rosiglitazone 0.026 | [12] 0.005 | [13] -0.001

GPRIN1 (UniProt Q7Z2K8)
inactive: [1] 0.028 | [2] -0.029 | [3] -0.048 | [4] 0.005 | Nexturastat A -0.031 | vemurafenib -0.016 | [5] -0.011 | [6] -0.036 | givinostat -0.026 | barasertib -0.015 | [7] 0.011 | volasertib 0.054 | [8] 0.002 | epoxomicin 0.015 | [9] 0.003 | [10] -0.025 | [11] -0.034 | rosiglitazone -0.009 | [12] -0.064 | [13] 0.108

GOLT1B (UniProt Q9Y3E0)
inactive: [1] 0.029 | [2] 0.082 | [3] 0.021 | [4] 0.006 | Nexturastat A -0.062 | vemurafenib 0.015 | [5] 0.021 | [6] -0.028 | givinostat -0.022 | barasertib 0.044 | [7] -0.003 | volasertib 0.023 | [8] -0.012 | epoxomicin -0.048 | [9] -0.005 | [10] 0.09 | [11] 0.093 | rosiglitazone 0.009 | [12] -0.032 | [13] 0.032

GOLGA4 isoform 5 (UniProt Q13439)
inactive: [1] -0.07 | [2] 0.024 | [3] -0.085 | [4] 0.006 | Nexturastat A 0.122 | vemurafenib -0.029 | [5] 0 | [6] 0.048 | givinostat 0.13 | barasertib 0.103 | [7] -0.055 | volasertib -0.052 | [8] 0.008 | epoxomicin 0.035 | [9] -0.104 | [10] 0.056 | [11] -0.027 | rosiglitazone 0.068 | [12] 0.102 | [13] -0.091

GNA13 (UniProt Q14344)
inactive: [1] 0.01 | [2] 0 | [3] -0.015 | [4] -0.001 | Nexturastat A -0.014 | vemurafenib 0.015 | [5] -0.006 | [6] 0.028 | givinostat 0.001 | barasertib 0.006 | [7] 0.075 | volasertib 0.062 | [8] 0.002 | epoxomicin -0.001 | [9] -0.021 | [10] 0.003 | [11] 0.022 | rosiglitazone 0.028 | [12] -0.098 | [13] 0.049

GOLGA3 (UniProt Q08378)
inactive: [1] 0.003 | [2] 0.008 | [3] 0.042 | [4] -0.03 | Nexturastat A -0.081 | vemurafenib 0.053 | [5] 0.065 | [6] 0.032 | givinostat 0.016 | barasertib 0 | [7] -0.009 | volasertib -0.001 | [8] 0.028 | epoxomicin -0.001 | [9] -0.027 | [10] -0.005 | [11] 0.04 | rosiglitazone 0.014 | [12] -0.042 | [13] 0.071

GOSR1 (UniProt O95249)
inactive: [1] 0.007 | [2] 0.016 | [3] 0.017 | [4] 0.077 | Nexturastat A -0.02 | vemurafenib 0.036 | [5] 0.024 | [6] -0.02 | givinostat 0.021 | barasertib 0.003 | [7] -0.077 | volasertib -0.025 | [8] -0.034 | epoxomicin 0.023 | [9] 0.016 | [10] -0.024 | [11] -0.004 | rosiglitazone 0.021 | [12] -0.027 | [13] -0.185

Quoted from above (4 entries):
GLMN (UniProt Q92990)
inactive: [1] -0.01 | [2] 0.013 | [3] 0.017 | [4] -0.009 | Nexturastat A -0.033 | vemurafenib 0.05 | [5] 0.074 | [6] -0.017 | givinostat 0.03 | barasertib 0.005 | [7] -0.054 | volasertib -0.08 | [8] 0.024 | epoxomicin 0.023 | [9] 0.004 | [10] -0.007 | [11] 0.004 | rosiglitazone 0.032 | [12] -0.043 | [13] -0.125

GLG1 isoform 2 (UniProt Q92896)
inactive: [1] -0.027 | [2] 0.008 | [3] 0.102 | [4] 0.031 | Nexturastat A -0.061 | vemurafenib -0.014 | [5] 0.02 | [6] -0.008 | givinostat 0.005 | barasertib 0.015 | [7] 0.014 | volasertib -0.071 | [8] -0.039 | epoxomicin 0.04 | [9] -0.007 | [10] -0.01 | [11] -0.033 | rosiglitazone -0.003 | [12] -0.037 | [13] 0.042

GRPEL1 (UniProt Q9HAV7)
inactive: [1] 0.059 | [2] -0.028 | [3] 0.002 | [4] 0.031 | Nexturastat A -0.091 | vemurafenib 0.032 | [5] 0.003 | [6] 0.081 | givinostat -0.016 | barasertib 0.019 | [7] -0.001 | volasertib -0.025 | [8] 0.027 | epoxomicin 0.005 | [9] 0.014 | [10] -0.016 | [11] 0 | rosiglitazone 0.033 | [12] -0.083 | [13] -0.021

GRIPAP1 (UniProt Q4V328)
inactive: [1] 0.011 | [2] 0.011 | [3] 0.012 | [4] 0.016 | Nexturastat A 0.03 | vemurafenib 0.036 | [5] 0.094 | [6] 0.045 | givinostat -0.005 | barasertib 0.032 | [7] -0.031 | volasertib -0.236 | [8] 0.093 | epoxomicin -0.039 | [9] -0.016 | [10] 0.017 | [11] -0.022 | rosiglitazone 0.018 | [12] 0.044 | [13] 0.044

More records follow.

GLB1L2 (UniProt Q8IW92)
inactive: [1] 0.011 | [2] -0.023 | [3] -0.015 | [4] -0.071 | Nexturastat A -0.007 | vemurafenib -0.017 | [5] 0.01 | [6] 0.019 | givinostat -0.012 | barasertib 0.051 | [7] 0.02 | volasertib -0.041 | [8] 0.057 | epoxomicin -0.145 | [9] 0.043 | [10] 0.011 | [11] 0.055 | rosiglitazone 0.025 | [12] -0.075 | [13] -0.044

GID8 (UniProt Q9NWU2)
inactive: [1] 0.035 | [2] -0.037 | [3] -0.044 | [4] 0.013 | Nexturastat A 0.047 | vemurafenib 0.063 | [5] -0.002 | [6] -0.03 | givinostat -0.027 | barasertib 0.054 | [7] -0.071 | volasertib -0.113 | [8] -0.004 | epoxomicin -0.033 | [9] 0.01 | [10] 0.186 | [11] -0.002 | rosiglitazone -0.01 | [12] -0.003 | [13] 0.011
